# Source: the supplement of paper PMC6411743
# Protein sequences, listed by entry. Tags and fused reporters are not part of them. Lines headed by an entry give the natural chain unless they say otherwise; changes in a name come on top.
# UniProt Q9Y4W2: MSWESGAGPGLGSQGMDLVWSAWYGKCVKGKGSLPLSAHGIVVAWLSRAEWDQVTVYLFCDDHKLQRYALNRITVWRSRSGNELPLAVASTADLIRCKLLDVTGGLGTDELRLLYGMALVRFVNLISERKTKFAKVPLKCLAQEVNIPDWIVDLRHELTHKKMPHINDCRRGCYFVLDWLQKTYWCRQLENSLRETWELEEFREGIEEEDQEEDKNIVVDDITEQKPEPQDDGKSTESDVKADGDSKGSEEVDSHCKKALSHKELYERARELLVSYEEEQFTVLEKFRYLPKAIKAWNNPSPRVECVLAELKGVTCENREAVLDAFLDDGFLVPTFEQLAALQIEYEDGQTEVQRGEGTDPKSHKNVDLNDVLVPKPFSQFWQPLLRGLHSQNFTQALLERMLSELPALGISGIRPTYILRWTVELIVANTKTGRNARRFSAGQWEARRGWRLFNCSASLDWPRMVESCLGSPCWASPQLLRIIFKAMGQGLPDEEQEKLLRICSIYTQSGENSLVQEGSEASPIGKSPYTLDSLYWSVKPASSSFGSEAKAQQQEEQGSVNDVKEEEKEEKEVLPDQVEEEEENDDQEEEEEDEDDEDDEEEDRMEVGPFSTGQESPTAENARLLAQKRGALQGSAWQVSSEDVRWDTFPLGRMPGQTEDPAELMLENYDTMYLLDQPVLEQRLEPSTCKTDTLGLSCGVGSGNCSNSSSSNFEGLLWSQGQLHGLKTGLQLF
# UniProt Q9Y3L5: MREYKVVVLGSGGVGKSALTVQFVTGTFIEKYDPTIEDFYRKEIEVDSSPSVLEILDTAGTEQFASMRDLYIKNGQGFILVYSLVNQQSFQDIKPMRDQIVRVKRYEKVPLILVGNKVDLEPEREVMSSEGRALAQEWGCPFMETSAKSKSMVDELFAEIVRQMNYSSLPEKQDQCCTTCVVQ
# UniProt Q9Y6V7: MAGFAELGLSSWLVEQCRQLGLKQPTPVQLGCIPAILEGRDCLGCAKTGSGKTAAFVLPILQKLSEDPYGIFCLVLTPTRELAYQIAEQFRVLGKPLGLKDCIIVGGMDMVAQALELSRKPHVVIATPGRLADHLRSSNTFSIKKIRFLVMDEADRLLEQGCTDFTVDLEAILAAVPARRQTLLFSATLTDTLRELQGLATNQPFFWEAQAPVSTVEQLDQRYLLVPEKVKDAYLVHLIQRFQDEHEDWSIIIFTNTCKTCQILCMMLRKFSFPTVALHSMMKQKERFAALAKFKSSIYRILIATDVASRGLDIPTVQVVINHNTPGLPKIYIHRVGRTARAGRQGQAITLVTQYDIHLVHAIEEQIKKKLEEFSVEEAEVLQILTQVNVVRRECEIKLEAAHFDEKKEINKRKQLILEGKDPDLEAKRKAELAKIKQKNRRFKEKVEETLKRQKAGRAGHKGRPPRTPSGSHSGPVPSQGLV
# UniProt Q9Y2Y0: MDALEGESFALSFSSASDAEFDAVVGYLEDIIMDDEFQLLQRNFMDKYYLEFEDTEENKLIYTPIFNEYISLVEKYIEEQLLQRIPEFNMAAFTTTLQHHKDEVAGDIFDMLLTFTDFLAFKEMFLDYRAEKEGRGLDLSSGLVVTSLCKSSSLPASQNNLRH
# UniProt Q9Y3E2: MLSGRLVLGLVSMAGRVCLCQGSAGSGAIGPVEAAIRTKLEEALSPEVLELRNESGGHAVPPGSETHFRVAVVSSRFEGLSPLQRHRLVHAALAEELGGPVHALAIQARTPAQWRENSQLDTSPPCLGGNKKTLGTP
# UniProt Q9Y6A4: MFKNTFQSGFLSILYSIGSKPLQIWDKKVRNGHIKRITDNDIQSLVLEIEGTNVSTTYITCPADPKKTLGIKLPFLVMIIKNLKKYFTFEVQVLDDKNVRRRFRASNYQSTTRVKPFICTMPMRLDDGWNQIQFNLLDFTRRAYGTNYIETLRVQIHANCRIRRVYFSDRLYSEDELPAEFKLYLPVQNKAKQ
# UniProt Q9Y6J9: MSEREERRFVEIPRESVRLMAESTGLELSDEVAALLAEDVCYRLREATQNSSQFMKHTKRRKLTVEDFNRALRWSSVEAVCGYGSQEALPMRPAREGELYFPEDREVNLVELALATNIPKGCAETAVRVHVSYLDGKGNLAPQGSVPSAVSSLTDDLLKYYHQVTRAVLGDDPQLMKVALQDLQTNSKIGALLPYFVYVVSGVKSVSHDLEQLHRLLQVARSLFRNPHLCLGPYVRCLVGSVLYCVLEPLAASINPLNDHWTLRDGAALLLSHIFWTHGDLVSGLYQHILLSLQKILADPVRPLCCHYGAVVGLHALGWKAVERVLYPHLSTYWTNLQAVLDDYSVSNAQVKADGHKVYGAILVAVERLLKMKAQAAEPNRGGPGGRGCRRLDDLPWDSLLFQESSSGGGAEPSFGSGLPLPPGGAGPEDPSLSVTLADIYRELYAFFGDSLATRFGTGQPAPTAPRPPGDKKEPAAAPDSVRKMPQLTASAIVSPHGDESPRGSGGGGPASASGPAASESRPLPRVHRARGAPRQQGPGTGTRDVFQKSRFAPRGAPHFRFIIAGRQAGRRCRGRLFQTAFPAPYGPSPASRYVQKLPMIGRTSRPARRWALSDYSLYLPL
# UniProt Q9Y6Y0: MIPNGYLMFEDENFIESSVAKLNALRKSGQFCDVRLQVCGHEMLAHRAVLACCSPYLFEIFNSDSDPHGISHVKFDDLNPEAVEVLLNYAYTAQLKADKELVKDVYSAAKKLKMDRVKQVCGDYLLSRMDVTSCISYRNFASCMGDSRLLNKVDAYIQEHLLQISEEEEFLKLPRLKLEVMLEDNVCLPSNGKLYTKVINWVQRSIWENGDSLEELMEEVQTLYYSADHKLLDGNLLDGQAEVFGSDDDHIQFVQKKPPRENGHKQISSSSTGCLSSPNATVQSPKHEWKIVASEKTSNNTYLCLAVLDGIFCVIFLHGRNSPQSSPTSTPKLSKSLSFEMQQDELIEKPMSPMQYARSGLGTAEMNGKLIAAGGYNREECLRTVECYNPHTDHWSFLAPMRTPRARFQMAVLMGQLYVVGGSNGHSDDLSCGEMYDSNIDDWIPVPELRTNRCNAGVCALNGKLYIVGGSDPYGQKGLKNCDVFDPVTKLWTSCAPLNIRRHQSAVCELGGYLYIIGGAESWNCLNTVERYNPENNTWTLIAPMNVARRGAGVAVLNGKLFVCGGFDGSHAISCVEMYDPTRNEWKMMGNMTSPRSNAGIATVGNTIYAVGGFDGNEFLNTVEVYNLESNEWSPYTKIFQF
# UniProt Q9Y333: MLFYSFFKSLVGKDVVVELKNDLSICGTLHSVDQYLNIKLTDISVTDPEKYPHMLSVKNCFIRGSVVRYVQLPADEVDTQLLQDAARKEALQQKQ
# UniProt Q9Y6A9: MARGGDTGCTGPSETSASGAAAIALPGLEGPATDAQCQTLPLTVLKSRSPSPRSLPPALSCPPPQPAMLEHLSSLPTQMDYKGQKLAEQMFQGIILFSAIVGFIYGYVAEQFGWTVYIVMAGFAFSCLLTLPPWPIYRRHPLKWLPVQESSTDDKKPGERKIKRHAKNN
# UniProt Q9Y5U2: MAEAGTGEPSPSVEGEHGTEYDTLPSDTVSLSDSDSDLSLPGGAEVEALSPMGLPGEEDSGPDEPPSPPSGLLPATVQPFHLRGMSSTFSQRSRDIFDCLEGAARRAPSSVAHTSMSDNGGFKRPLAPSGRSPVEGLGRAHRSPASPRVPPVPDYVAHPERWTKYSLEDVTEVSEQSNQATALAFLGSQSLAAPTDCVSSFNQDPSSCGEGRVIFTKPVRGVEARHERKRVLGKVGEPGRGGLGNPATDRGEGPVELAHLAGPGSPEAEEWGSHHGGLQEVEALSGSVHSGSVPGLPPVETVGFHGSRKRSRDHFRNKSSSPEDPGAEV
# UniProt Q9Y6N5: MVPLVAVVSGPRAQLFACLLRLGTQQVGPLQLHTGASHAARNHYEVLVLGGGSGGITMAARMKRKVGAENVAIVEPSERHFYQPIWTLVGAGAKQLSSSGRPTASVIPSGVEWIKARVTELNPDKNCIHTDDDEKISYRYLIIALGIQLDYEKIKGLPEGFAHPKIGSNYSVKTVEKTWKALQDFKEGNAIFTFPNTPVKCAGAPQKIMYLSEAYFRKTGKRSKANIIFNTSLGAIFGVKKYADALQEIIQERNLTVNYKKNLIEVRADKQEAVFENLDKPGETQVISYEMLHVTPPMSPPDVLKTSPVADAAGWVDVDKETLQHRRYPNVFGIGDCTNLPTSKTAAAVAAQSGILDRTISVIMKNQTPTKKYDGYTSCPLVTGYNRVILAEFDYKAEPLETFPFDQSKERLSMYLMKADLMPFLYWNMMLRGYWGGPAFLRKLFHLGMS
# UniProt Q9Y2Q5, whole entry: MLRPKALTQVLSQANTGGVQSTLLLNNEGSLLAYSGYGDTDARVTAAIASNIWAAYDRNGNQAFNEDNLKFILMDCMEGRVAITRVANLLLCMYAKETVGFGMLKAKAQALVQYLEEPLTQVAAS
# UniProt Q9Y385: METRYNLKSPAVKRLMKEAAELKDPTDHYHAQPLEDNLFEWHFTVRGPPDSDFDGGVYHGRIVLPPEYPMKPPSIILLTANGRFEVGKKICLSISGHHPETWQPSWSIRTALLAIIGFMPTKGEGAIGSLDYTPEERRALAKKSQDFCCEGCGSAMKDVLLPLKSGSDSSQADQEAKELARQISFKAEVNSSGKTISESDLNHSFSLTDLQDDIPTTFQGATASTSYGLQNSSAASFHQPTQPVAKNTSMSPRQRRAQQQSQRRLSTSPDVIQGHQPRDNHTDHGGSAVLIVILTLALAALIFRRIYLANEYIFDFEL
# UniProt Q9Y2B0: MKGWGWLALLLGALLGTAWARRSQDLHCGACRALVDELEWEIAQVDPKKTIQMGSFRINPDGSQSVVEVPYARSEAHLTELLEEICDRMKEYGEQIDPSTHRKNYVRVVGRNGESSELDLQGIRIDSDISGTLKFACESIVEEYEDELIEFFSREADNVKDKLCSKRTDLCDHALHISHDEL
# UniProt Q9Y547: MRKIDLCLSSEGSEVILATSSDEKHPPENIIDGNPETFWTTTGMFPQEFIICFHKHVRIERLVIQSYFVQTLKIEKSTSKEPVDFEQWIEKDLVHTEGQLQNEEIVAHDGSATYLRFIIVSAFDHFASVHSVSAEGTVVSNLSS
# UniProt Q9Y2Z4: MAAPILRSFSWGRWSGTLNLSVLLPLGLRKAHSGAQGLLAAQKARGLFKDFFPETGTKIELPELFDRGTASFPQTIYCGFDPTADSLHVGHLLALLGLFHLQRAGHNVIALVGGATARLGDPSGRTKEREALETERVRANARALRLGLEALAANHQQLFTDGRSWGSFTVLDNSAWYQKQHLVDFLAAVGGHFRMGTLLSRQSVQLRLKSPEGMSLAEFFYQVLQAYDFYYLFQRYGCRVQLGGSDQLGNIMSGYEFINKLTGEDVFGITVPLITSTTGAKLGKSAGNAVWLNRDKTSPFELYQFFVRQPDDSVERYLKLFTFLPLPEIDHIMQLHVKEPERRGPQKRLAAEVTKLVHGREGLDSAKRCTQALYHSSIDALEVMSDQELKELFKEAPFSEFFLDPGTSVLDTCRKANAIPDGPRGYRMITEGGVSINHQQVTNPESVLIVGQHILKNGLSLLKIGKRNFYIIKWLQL
# UniProt Q9Y2H2: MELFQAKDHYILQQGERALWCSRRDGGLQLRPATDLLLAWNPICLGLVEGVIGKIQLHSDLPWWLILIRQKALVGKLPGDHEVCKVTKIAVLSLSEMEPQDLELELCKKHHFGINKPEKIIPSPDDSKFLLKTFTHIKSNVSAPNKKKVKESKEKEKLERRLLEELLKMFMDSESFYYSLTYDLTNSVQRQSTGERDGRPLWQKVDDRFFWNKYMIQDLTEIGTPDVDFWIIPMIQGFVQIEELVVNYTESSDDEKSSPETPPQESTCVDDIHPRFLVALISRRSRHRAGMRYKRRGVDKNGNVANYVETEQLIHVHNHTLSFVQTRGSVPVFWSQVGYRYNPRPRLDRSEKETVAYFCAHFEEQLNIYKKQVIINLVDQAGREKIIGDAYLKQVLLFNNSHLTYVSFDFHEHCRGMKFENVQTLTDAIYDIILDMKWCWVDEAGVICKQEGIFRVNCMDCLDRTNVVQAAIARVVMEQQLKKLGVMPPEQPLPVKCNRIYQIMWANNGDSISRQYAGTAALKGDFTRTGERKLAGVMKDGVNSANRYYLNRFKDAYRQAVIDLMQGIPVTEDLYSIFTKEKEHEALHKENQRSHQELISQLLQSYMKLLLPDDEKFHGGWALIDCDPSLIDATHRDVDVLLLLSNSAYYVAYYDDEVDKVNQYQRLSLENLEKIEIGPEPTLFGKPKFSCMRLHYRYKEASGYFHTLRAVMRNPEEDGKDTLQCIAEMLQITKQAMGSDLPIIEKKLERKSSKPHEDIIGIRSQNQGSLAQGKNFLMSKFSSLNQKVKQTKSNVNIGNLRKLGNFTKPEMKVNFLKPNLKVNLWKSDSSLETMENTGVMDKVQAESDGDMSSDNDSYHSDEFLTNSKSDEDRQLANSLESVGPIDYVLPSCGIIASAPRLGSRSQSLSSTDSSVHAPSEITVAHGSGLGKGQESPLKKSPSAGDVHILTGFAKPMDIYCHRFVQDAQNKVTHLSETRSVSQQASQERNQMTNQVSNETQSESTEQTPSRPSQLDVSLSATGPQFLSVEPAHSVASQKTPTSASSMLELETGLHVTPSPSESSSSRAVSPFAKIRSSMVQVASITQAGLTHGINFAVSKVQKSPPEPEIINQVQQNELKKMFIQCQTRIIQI
# ± gives the standard deviation of the averaged measurements. Only a part is listed here, and it is no random draw. Small differences around the control level are noise.
# Compound: Nc1ncnc2c1ncn2[C@@H]1O[C@H](COP(=O)(O)OP(=O)(O)OP(=O)(O)O)[C@@H](O)[C@H]1O [adenosine triphosphate]
# Assay: NP40-soluble protein abundance relative to vehicle (solubility fold change) (ratio); higher = more soluble protein in presence of ATP
# How it was run: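 Across three independent experiments, values are fold changes against the detergent-processed vehicle for each replicate, based on vsn-normalised intensities. The samples were Jurkat crude lysate treated with eight concentrations (0.1 to 10 mM) for 10 min at room temperature and then 3 min at 37 °C. Lysate was solubilised with 0.8% NP40 and benzonase, ultracentrifuged, and the supernatant analysed by TMT-labelled LC-MS/MS.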
Target,NP40-soluble protein abundance (concentration: 0.1mM),NP40-soluble protein abundance (concentration: 0.5mM)
UniProt Q9Y4E5 and related entries,1.05 ± 0.054,1.03 ± 0.037
UniProt Q9Y4W2 and related entries,0.951 ± 0.057,0.973 ± 0.052
LSM4 (UniProt Q9Y4Z0),0.977 ± 0.023,0.947 ± 0.058
TIMM22 (UniProt Q9Y584),0.854 ± 0.09,0.849 ± 0.15
ZHX2 (UniProt Q9Y6X8),0.964 ± 0.045,0.978 ± 0.015
UniProt Q9Y3L5,1.06 ± 0.091,1.11 ± 0.12
UniProt Q9Y678,1.02 ± 0.062,1.03 ± 0.032
MRPS16 (UniProt Q9Y3D3),0.874 ± 0.084,0.905 ± 0.11
UniProt Q9Y3F4 and related entries,1.01 ± 0.05,1.06 ± 0.064
UniProt Q9Y4F3 and related entries,0.931 ± 0.1,0.982 ± 0.011
THRAP3 (UniProt Q9Y2W1),1.03 ± 0.025,1.2 ± 0.071
UniProt Q9Y2A7 and related entries,1.01 ± 0.14,1 ± 0.14
GOLT1B (UniProt Q9Y3E0),1.08 ± 0.14,1.01 ± 0.072
CARHSP1 (UniProt Q9Y2V2),0.908 ± 0.026,0.89 ± 0.023
UniProt Q9Y2C4 and related entries,1.05 ± 0.037,1.06 ± 0.1
RBM19 (UniProt Q9Y4C8),0.992 ± 0.043,0.9863 ± 0.0093
DDX49 (UniProt Q9Y6V7),0.967 ± 0.098,1.07 ± 0.17
UniProt Q9Y3C4 and related entries,0.984 ± 0.032,0.991 ± 0.054
RNF114 (UniProt Q9Y508),1.06 ± 0.073,1.06 ± 0.079
UniProt Q9Y2I7 and related entries,1.01 ± 0.021,1.01 ± 0.043

Target,NP40-soluble protein abundance (concentration: 0.1mM),NP40-soluble protein abundance (concentration: 0.5mM)
UniProt Q9Y2Y0 and related entries,1.04 ± 0.056,0.999 ± 0.094
BOLA1 (UniProt Q9Y3E2),0.922 ± 0.17,0.862 ± 0.059
UniProt Q9Y448 and related entries,0.887 ± 0.12,0.852 ± 0.15
CHCHD2 (UniProt Q9Y6H1),1.05 ± 0.17,0.977 ± 0.12
ENPP4 (UniProt Q9Y6X5),0.995 ± 0.012,0.978 ± 0.11
UniProt Q9Y6A4,1.02 ± 0.15,1.06 ± 0.099
RCL1 (UniProt Q9Y2P8),1.01 ± 0.15,1.06 ± 0.08
TAF6L (UniProt Q9Y6J9),1.03 ± 0.076,0.977 ± 0.063
UniProt Q9Y2S2 and related entries,1.01 ± 0.053,0.985 ± 0.023
UFC1 (UniProt Q9Y3C8),0.897 ± 0.17,0.84 ± 0.14
UniProt Q9Y697 and related entries,1.01 ± 0.032,0.999 ± 0.028
IVNS1ABP (UniProt Q9Y6Y0),1.02 ± 0.038,1.05 ± 0.078
UniProt Q9Y608 and related entries,0.948 ± 0.044,0.981 ± 0.024
UniProt Q9Y333,0.923 ± 0.014,0.954 ± 0.088
UniProt Q9Y2H6 and related entries,1.04 ± 0.075,1.05 ± 0.062
SPCS1 (UniProt Q9Y6A9),0.954 ± 0.066,0.9944 ± 0.0046
ARFGEF1 (UniProt Q9Y6D6),1.008 ± 0.004,1.03 ± 0.023
EXOSC1 (UniProt Q9Y3B2),1.02 ± 0.073,1.05 ± 0.034
UniProt Q9Y3C1 and related entries,0.991 ± 0.077,0.873 ± 0.1
UniProt Q9Y6X9 and related entries,0.993 ± 0.039,1.055 ± 0.008

Target,NP40-soluble protein abundance (concentration: 0.1mM),NP40-soluble protein abundance (concentration: 0.5mM)
SNX5 (UniProt Q9Y5X3),1.02 ± 0.038,1.03 ± 0.039
TLN1 (UniProt Q9Y490),0.994 ± 0.023,1 ± 0.052
ASB1 (UniProt Q9Y576),0.961 ± 0.051,0.937 ± 0.11
UniProt Q9Y6R1 and related entries,1.03 ± 0.067,0.734 ± 0.1
UniProt Q9Y5U2 and related entries,0.917 ± 0.093,0.865 ± 0.14
UniProt Q9Y6N5,1.06 ± 0.069,1.06 ± 0.06
UniProt Q9Y4E8 and related entries,1.02 ± 0.046,1.01 ± 0.061
UniProt Q9Y2Q5 and related entries,0.838 ± 0.083,0.803 ± 0.18
UBE2J1 (UniProt Q9Y385),0.991 ± 0.053,0.997 ± 0.036
CNPY2 (UniProt Q9Y2B0),0.946 ± 0.06,0.913 ± 0.07
HSPB11 (UniProt Q9Y547),1.06 ± 0.11,1.08 ± 0.024
ATP6V1D (UniProt Q9Y5K8),0.997 ± 0.018,0.971 ± 0.03
TELO2 (UniProt Q9Y4R8),1.02 ± 0.086,1.01 ± 0.046
AP3M1 (UniProt Q9Y2T2),0.964 ± 0.088,0.957 ± 0.058
YARS2 (UniProt Q9Y2Z4),1.08 ± 0.1,1.03 ± 0.055
FIS1 (UniProt Q9Y3D6),0.998 ± 0.084,0.917 ± 0.16
INPP5F (UniProt Q9Y2H2),1.11 ± 0.069,1.02 ± 0.045
UniProt Q9Y5V3 and related entries,0.959 ± 0.1,0.986 ± 0.08
UniProt Q9Y2I8 and related entries,1.01 ± 0.022,1.02 ± 0.052
AFG3L2 (UniProt Q9Y4W6),1.04 ± 0.064,1.04 ± 0.048

# Look-ups from the list:
# ATP6V1D (UniProt Q9Y5K8) | NP40-soluble protein abundance (concentration: 0.5mM): 0.971 ± 0.03
# SNX5 (UniProt Q9Y5X3) | NP40-soluble protein abundance (concentration: 0.5mM): 1.03 ± 0.039
# AP3M1 (UniProt Q9Y2T2) | NP40-soluble protein abundance (concentration: 0.5mM): 0.957 ± 0.058
